# Results: publication PMC3814600
# By UniProt entry, the sequences of proteins in these tests, tags left out.
# UniProt Q64FN9: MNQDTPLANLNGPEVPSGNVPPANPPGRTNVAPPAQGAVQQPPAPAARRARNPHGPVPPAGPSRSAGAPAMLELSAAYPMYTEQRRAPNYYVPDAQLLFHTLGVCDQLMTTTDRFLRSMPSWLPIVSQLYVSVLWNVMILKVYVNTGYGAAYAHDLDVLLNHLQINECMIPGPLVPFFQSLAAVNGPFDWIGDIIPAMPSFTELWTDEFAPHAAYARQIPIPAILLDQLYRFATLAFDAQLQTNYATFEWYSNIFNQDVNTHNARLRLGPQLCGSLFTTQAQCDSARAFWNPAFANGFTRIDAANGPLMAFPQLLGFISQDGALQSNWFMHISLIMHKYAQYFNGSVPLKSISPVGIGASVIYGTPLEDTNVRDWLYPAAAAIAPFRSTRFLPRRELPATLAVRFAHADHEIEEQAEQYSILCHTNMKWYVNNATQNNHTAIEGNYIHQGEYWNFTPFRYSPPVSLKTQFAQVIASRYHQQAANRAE
# Results are given in words; binding and its absence hold for the method and conditions named. In cells and extracts the contact can be indirect. Some entries that bind do so weakly or less than the wild type.
# Target: White clover cryptic virus 1 coat protein (White clover cryptic virus 1) (UniProt Q64FN9)
# Experiment: split reporter
substance,measurement,value
White clover cryptic virus 1 coat protein (from UniProt Q64FN9 1-487),binding,binds
